Assay results: publication PMC5889392, “Cryptic glucocorticoid receptor-binding sites pervade genomic NF-κB response elements”
Results are given in words; binding and its absence hold for the method and conditions named. Binding seen in cells or lysates may run through a third protein. Some entries that bind do so weakly or less than the wild type.

Protein sequences, listed by entry. Tags and fused reporters are not part of them. Lines headed by an entry give the natural chain unless they say otherwise; changes in a name come on top.
UniProt P04150: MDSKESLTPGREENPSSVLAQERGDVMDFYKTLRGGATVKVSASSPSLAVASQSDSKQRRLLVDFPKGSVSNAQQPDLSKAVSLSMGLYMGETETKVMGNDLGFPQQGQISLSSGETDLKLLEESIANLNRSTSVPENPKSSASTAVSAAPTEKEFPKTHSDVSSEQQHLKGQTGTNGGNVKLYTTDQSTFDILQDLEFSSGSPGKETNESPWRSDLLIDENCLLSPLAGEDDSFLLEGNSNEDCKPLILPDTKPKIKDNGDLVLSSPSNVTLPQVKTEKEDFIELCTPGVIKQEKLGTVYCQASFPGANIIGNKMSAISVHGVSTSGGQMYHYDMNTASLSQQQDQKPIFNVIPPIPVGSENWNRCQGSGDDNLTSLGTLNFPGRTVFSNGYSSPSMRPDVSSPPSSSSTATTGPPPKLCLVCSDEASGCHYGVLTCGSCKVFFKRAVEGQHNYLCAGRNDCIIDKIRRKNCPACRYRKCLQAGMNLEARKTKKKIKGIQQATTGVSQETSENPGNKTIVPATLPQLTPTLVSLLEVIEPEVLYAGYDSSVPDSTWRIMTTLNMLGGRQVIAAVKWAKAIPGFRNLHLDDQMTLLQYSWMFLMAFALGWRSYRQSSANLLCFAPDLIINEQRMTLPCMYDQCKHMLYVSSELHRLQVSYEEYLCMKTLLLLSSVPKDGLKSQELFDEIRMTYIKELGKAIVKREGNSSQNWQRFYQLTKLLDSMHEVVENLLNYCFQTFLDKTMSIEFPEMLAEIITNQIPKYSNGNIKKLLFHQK
UniProt Q04206: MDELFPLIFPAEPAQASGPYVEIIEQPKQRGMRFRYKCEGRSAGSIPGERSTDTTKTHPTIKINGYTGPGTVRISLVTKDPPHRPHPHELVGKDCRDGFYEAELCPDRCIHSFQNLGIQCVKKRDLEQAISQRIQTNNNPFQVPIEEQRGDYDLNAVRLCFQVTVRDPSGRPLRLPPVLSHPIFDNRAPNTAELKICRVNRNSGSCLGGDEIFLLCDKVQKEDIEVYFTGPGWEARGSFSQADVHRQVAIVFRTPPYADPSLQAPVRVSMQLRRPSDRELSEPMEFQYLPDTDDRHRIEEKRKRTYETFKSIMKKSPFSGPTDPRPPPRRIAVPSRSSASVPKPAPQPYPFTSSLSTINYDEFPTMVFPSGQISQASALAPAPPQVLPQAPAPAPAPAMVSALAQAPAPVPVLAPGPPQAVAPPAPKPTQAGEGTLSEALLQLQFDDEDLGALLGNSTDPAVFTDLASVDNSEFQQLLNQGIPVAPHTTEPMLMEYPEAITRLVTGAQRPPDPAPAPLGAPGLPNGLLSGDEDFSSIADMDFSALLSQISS

Tests used:
Assay in all cases: co-IP; HEK293T cells co-transfected with rtTA, inducible HA-GR (WT or mutant) and p65 plasmids; 1 μg/ml doxycycline 24 h, 10 ng/ml TNF-α 1 h; RIPA lysate; IP with anti-HA (Y-11) on Dynabeads protein G overnight at 4 °C, western blot with anti-p65 (F-6)
[1] = molecular target: HA-tagged glucocorticoid receptor K442A R447A (HA-GR-K442A R447A) (human) (UniProt P04150)
[2] = molecular target: HA-tagged glucocorticoid receptor S425G (HA-GR-S425G) (human) (UniProt P04150)
[3] = molecular target: HA-tagged wild-type glucocorticoid receptor (HA-GR-WT) (human) (UniProt P04150)

Measured: binding

p65/RelA subunit of NF-κB (from UniProt Q04206 1-551)
binds: [1] | [2] | [3]
